Source: US20240199455A1, “REMOVAL OF TOXIC OXYANIONS BY CO-CRYSTALLIZATION WITH SULFATE” (UT-Battelle, LLC, priority 2022, published 2024)

Test: Recovery of BIG free base from crystalline BIG-oxyanion solid by NaOH
Conditions: relative to the initial BIG-oxyanion precipitate; NaOH neutralization

## N=C(N)NN=Cc1ccc(C=NNC(=N)N)cc1 [BBIG free base]
  BIG free base recovered: 84.1±1.9%

## N=C(N)NN=Cc1cccc(C=NNC(=N)N)n1 [PyBIG free base]
  BIG free base recovered: 23.2±4.0%
